Results as given in patent publication EP4484444A1.
Results are given in words; binding and its absence hold for the method and conditions named. Some entries that bind do so weakly or less than the wild type. Where a sequence is shown, tags or fusion partners need not be part of it.

Protein sequences, listed by entry. Tags and fused reporters are not part of them. Chains listed by the source or under a name are the forms on record and can include a tag or linker. Residues count along the entry.
mini-procollagen III (fused to a N-terminal c-myc tag) (P02461, residues 1098-1466): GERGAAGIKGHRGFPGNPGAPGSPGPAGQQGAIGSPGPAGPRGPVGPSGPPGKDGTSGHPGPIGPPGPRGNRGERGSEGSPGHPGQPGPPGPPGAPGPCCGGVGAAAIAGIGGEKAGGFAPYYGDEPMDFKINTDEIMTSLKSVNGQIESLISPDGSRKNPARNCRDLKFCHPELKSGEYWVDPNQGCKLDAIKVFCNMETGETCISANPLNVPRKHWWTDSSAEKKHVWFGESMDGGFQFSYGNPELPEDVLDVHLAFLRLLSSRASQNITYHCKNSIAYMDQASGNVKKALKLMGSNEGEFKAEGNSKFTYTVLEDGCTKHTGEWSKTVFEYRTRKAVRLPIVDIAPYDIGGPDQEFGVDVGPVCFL
C-propeptide III (C-propeptide of procollagen III) (P02461, residues 1222-1466): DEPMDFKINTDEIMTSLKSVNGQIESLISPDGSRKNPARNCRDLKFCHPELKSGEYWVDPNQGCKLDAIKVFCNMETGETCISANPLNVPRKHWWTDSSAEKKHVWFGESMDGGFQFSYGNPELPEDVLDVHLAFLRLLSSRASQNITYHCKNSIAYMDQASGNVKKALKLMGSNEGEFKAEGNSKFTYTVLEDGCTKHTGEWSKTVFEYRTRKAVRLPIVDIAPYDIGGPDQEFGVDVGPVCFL

B1: recombinant human PCPE-2 (procollagen C-proteinase enhancer 2) fused to a 6 Histidine-tag at the N-terminus (protein)
chain: HHHHHHQSPERPVFTCGGILTGESGFIGSEGFPGVYPPNSKCTWKITVPEGKVVVLNFRFIDLESDNLCRYDFVDVYNGHANGQRIGRFCGTFRPGALVSSGNKMMVQMISDANTAGNGFMAMFSAAEPNERGDQYCGGLLDRPSGSFKTPNWPDRDYPAGVTCVWHIVAPKNQLIELKFEKFDVERDNYCRYDYVAVFNGGEVNDARRIGKYCGDSPPAPIVSERNELLIQFLSDLSLTADGFIGHYIFRPKKLPTTTEQPVTTTFPVTTGLKPTVALCQQKCRRTGTLEGNYCSSDFVLAGTVITTITRDGSLHATVSIINIYKEGNLAIQQAGKNMSARLTVVCKQCPLLRRGLNYIIMGQVGEDGRGKIMPNSFIMMFKTKNQKLLDALKNKQC
B2: human BMP-1 (bone morphogenetic protein-1) fused to a C-terminal Flag tag (enzyme, UniProt P13497-2 121-730, looked up, not shown: small tags and cut ends)
chain: AATSRPERVWPDGVIPFVIGGNFTGSQRAVFRQAMRHWEKHTCVTFLERTDEDSYIVFTYRPCGCCSYVGRRGGGPQAISIGKNCDKFGIVVHELGHVVGFWHEHTRPDRDRHVSIVRENIQPGQEYNFLKMEPQEVESLGETYDFDSIMHYARNTFSRGIFLDTIVPKYEVNGVKPPIGQRTRLSKGDIAQARKLYKCPACGETLQDSTGNFSSPEYPNGYSAHMHCVWRISVTPGEKIILNFTSLDLYRSRLCWYDYVEVRDGFWRKAPLRGRFCGSKLPEPIVSTDSRLWVEFRSSSNWVGKGFFAVYEAICGGDVKKDYGHIQSPNYPDDYRPSKVCIWRIQVSEGFHVGLTFQSFEIERHDSCAYDYLEVRDGHSESSTLIGRYCGYEKPDDIKSTSSRLWLKFVSDGSINKAGFAVNFFKEVDECSRPNRGGCEQRCLNTLGSYKCSCDPGYELAPDKRRCEAACGGFLTKLNGSITSPGWPKEYPPNKNCIWQLVAPTQYRISLQFDFFETEGNDVCKYDFVEVRSGLTADSKLHGKFCGSEKPEVITSQYNNMRVEFKSDNTVSKKGFKAHFFSEKRPALQPPRGRPHQLKFRVQKRNRTPQ

How the values were obtained:
[1] = biological target: mini-procollagen III (fused to a N-terminal c-myc tag) (UniProt P02461); assay: SPR, legend of Fig. 19
[2] = biological target: mini-procollagen III (fused to a N-terminal c-myc tag) (UniProt P02461); assay: SPR, PCPE-2 injected over immobilized mini-procollagen III
[3] = biological target: C-propeptide III (C-propeptide of procollagen III) (UniProt P02461); assay: SPR co-injection over immobilized C-propeptide III

Binder	binding [1]	binding [2]	binding [3]
B1	binds	binds	
B2			binds
